Legend:
[1] = Impedance study of corrosion inhibition, equivalent circuit model CPE with Diffusion; settings: C-steel, 1M HCl, 298 K
From the text: (§1) In an embodiment, the thus formed CuL copper complex can undergo anticorrosion studies by adding the obtained CuL copper complex to hydrochloric acid (for example, at 1M) using a C-steel electrode.
(§2) The % inhibition of Spiro compounds SP34, SP37 and SP311 and their copper complexes for C-steel in hydrochloric acid solution (1M) were computed by Impedance and Polarization studies. The model used for the electrochemical equivalent circuit to fit the impedance for anticorrosion studies of Carbon steel (C-steel) by Spiro inhibitors was CPE with diffusion as shown in FIG. 7.

[2] = Polarization (Tafel) study of corrosion inhibition; settings: C-steel, 1M HCl, 298 K; for θ: polarization
From the text: as §1, §2

[3] = Bode phase and Bode plots of a C-steel electrode; settings: 1 M HCl; for Slope α: Bode plot

Compound: Cc1[nH]nnc1C(=O)[C@H]1[C@H](c2ccc(Cl)cc2Cl)C2CSCN2[C@]12C(=O)Nc1cc(Cl)ccc12 (stereo partly drawn) [SP 34, (3R,6'S,7′R)-6-chloro-7′-(2,4-dichlorophenyl)-6′-(5-methyl-1H-1,2,3-triazole-4-carbonyl)-1′,6′,7′,7a′-tetrahydro-3′H-spiro[indoline-3,5′-pyrrolo[1,2-c]thiazol]-2-one]
- θ ([1]; 0.037 mM): 0.825
- θ ([1]; 0.075 mM): 0.942
- θ ([1]; 0.112 mM): 0.974
- Corrosion Rate ([2]; 0.037 mM): 166.5 mpy
- Ecorr ([2]; 0.037 mM): -360.4 mV
- βa ([2]; 0.037 mM): 0.1677 V/decade
- βc ([2]; 0.037 mM): 0.2163 V/decade
- Corrosion Rate ([2]; 0.075 mM): 49.72 mpy
- Ecorr ([2]; 0.075 mM): -385.6 mV
- βa ([2]; 0.075 mM): 0.1419 V/decade
- βc ([2]; 0.075 mM): 0.1845 V/decade
- Corrosion Rate ([2]; 0.112 mM): 24.11 mpy
- Ecorr ([2]; 0.112 mM): -392.9 mV
- βa ([2]; 0.112 mM): 0.1291 V/decade
- βc ([2]; 0.112 mM): 0.1924 V/decade
- θ ([2]; 0.037 mM): 0.905
- θ ([2]; 0.075 mM): 0.971
- θ ([2]; 0.112 mM): 0.986
- Frequency ([3]; 0.037 mM): 315.50 Hz
- Phase angle ([3]; 0.037 mM): −60.64 °
- Frequency ([3]; 0.075 mM): 505.50 Hz
- Phase angle ([3]; 0.075 mM): −64.02 °
- Frequency ([3]; 0.112 mM): 315.50 Hz
- Phase angle ([3]; 0.112 mM): −56.48 °
- Slope α ([3]; 0.037 mM): −0.6717
- Slope α ([3]; 0.075 mM): −0.7124
- Slope α ([3]; 0.112 mM): −0.6321

Compound: Cc1[nH]nnc1C(=O)[C@H]1[C@H](c2cccc(Br)c2)C2CSCN2[C@]12C(=O)Nc1cc(Cl)ccc12 (stereo partly drawn) [SP 311, (3R,6'S,7′R)-7′-(3-bromophenyl)-6-chloro-6′-(5-methyl-1H-1,2,3-triazole-4-carbonyl)-1′,6′,7′,7a′-tetrahydro-3′H-spiro[indoline-3,5′-pyrrolo[1,2-c]thiazol]-2-one]
- θ ([1]; 0.036 mM): 0.143
- θ ([1]; 0.073 mM): 0.090
- θ ([1]; 0.109 mM): 0.629
- Corrosion Rate ([2]; 0.036 mM): 2064 mpy
- Ecorr ([2]; 0.036 mM): −326 mV
- βa ([2]; 0.036 mM): 0.2462 V/decade
- βc ([2]; 0.036 mM): 0.3398 V/decade
- Corrosion Rate ([2]; 0.073 mM): 1769 mpy
- Ecorr ([2]; 0.073 mM): −340.6 mV
- βa ([2]; 0.073 mM): 0.236 V/decade
- βc ([2]; 0.073 mM): 0.3194 V/decade
- Corrosion Rate ([2]; 0.109 mM): 374.9 mpy
- Ecorr ([2]; 0.109 mM): −346.5 mV
- βa ([2]; 0.109 mM): 0.1828 V/decade
- βc ([2]; 0.109 mM): 0.247 V/decade
- θ ([2]; 0.036 mM): −0.015
- θ ([2]; 0.073 mM): 0.130
- θ ([2]; 0.109 mM): 0.816
- Frequency ([3]; 0.036 mM): 198.60 Hz
- Phase angle ([3]; 0.036 mM): −43.50 °
- Frequency ([3]; 0.073 mM): 198.60 Hz
- Frequency ([3]; 0.109 mM): 315.50 Hz
- Phase angle ([3]; 0.109 mM): −53.23 °
- Slope α ([3]; 0.036 mM): −0.4465
- Slope α ([3]; 0.073 mM): −0.5577
- Slope α ([3]; 0.109 mM): −0.5999

Compound: Cc1[nH]nnc1C(=O)[C@H]1[C@H](c2cccc([N+](=O)[O-])c2)C2CSCN2[C@]12C(=O)Nc1cc(Cl)ccc12 (stereo partly drawn) [SP 37, (3R,6'S,7′R)-6-chloro-6′-(5-methyl-1H-1,2,3-triazole-4-carbonyl)-7′-(3-nitrophenyl)-1′,6′,7′,7a′-tetrahydro-3′H-spiro[indoline-3,5′-pyrrolo[1,2-c]thiazol]-2-one]
- θ ([1]; 0.039 mM): 0.212
- θ ([1]; 0.078 mM): 0.469
- θ ([1]; 0.117 mM): 0.565
- Corrosion Rate ([2]; 0.039 mM): 889.1 mpy
- Ecorr ([2]; 0.039 mM): −356.4 mV
- βa ([2]; 0.039 mM): 0.2062 V/decade
- βc ([2]; 0.039 mM): 0.2714 V/decade
- Corrosion Rate ([2]; 0.078 mM): 476.4 mpy
- Ecorr ([2]; 0.078 mM): −365.3 mV
- βa ([2]; 0.078 mM): 0.204 V/decade
- βc ([2]; 0.078 mM): 0.2582 V/decade
- Corrosion Rate ([2]; 0.117 mM): 311.8 mpy
- Ecorr ([2]; 0.117 mM): −409.6 mV
- βa ([2]; 0.117 mM): 0.1768 V/decade
- βc ([2]; 0.117 mM): 0.2218 V/decade
- θ ([2]; 0.039 mM): 0.490
- θ ([2]; 0.078 mM): 0.727
- θ ([2]; 0.117 mM): 0.821
- Frequency ([3]; 0.039 mM): 198.60 Hz
- Phase angle ([3]; 0.039 mM): −51.61 °
- Frequency ([3]; 0.078 mM): 158.40 Hz
- Phase angle ([3]; 0.078 mM): −48.21 °
- Frequency ([3]; 0.117 mM): 252.40 Hz
- Phase angle ([3]; 0.117 mM): −55.42 °
- Slope α ([3]; 0.039 mM): −0.5819
- Slope α ([3]; 0.078 mM): −0.5309
- Slope α ([3]; 0.117 mM): −0.6332
